For three molecules, binding results are on record in patent US20080193450A1 (ISTITUTO SUPERIORE DI SANITA, published 2008).

Amino acid sequences for entries named in this document (tags omitted). Residues count along the entry.
UniProt P0CS83, residues 57-398: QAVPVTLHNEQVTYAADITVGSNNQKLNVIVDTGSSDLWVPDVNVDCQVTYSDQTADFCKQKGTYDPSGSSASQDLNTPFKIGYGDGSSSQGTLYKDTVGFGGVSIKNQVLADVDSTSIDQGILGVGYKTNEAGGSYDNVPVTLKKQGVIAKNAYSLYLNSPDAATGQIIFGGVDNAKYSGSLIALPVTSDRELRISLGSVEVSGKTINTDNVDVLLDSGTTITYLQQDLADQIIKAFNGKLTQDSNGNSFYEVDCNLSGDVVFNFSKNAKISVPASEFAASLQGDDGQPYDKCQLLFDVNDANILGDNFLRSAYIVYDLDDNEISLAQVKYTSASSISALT

Results are given in words; binding and its absence hold for the method and conditions named. Some entries that bind do so weakly or less than the wild type.

The assay deals with recombinant 6x his-tagged SAP2 (secretory aspartic protease 2 of Candida albicans), refolded (Candida albicans) (UniProt P0CS83). The assay is described as follows: ELISA screen on coated recombinant SAP2. A general note: In an ELISA, binding on a coated surface is turned into a signal by an enzyme label.

B1: ADR4-11 (other)
chain: EVQLLESGGGLVQPGGSLRLSCAASGVIFTDQTMGWVRQAPGKGLEWVSAIKTRDGSTYYADSVKGRFTISRDNSKNTLYLQMNSLRAEDTAVYYCARFLRPNASRGSAREAQIHSWGQGTLVTVSS
For B1, the binding result was “binds”.

B2: ADR4-13 (other)
chain: EVQLLESGGGLVQPGGSLRLSCAASGFSISYKNMAWVRQAPGKGLEWVSAIKAANGSTYYADSVKGRFTISRDNSKNTLYLQMNSLRAEDTAVYYCATGSQKKRTYTFDFWGQGTLVTVSS
Take B2: the binding entry is reported as “binds”.

B3: ADR4-6 (other)
chain: EVQLLESGGGLVQPGGSLRLSCAASGFRVSNYDLTWVRQAPGKGLEWVSTISATNGSTYYADSVKGRFTISRDNSKNTLYLQMNSLRAEDTAVYYCAAVTWWLLRHNDNLGFWGQGTLVTVSS
Regarding B3, the binding entry is “binds”.
